Data taken from PMC12208556.
Results are given in words; binding and its absence hold for the method and conditions named. Some binding calls cover weakened binding; strength is not graded here.

Chains of the proteins cited; added tags and fusions are not shown. Lines headed by an entry give the natural chain unless they say otherwise; changes in a name come on top. Residues count along the entry.
UniProt P07996, residues 19-1170: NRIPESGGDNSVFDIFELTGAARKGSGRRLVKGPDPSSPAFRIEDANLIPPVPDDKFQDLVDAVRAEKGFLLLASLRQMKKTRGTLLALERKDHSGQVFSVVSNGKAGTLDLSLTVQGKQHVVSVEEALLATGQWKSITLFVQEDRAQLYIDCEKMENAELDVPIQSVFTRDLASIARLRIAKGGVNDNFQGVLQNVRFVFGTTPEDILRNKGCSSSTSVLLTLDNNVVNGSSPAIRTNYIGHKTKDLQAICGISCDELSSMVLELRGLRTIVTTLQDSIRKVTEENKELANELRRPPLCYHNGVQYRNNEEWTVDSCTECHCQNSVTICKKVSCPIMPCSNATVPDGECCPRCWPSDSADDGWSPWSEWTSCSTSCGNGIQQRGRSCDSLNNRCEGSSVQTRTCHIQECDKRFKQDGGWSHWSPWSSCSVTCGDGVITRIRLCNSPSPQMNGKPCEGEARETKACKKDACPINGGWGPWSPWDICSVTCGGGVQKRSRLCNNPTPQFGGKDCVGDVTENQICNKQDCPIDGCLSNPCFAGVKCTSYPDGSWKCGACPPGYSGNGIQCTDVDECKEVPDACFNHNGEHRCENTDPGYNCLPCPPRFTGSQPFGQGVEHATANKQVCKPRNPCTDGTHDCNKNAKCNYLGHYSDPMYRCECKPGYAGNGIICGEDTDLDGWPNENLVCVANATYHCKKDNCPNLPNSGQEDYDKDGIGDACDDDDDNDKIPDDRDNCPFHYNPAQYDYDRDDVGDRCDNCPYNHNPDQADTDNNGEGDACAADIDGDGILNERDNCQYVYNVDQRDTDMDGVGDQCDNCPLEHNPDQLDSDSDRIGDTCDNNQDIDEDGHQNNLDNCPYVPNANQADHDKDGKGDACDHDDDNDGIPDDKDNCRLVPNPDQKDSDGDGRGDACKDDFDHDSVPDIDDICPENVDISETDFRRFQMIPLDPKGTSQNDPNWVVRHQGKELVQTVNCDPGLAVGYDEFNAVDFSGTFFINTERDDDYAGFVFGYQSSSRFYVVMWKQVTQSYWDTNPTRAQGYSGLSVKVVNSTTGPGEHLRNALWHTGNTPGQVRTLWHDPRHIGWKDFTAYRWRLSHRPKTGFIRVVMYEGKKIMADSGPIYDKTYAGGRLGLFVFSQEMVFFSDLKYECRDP
UniProt P01024: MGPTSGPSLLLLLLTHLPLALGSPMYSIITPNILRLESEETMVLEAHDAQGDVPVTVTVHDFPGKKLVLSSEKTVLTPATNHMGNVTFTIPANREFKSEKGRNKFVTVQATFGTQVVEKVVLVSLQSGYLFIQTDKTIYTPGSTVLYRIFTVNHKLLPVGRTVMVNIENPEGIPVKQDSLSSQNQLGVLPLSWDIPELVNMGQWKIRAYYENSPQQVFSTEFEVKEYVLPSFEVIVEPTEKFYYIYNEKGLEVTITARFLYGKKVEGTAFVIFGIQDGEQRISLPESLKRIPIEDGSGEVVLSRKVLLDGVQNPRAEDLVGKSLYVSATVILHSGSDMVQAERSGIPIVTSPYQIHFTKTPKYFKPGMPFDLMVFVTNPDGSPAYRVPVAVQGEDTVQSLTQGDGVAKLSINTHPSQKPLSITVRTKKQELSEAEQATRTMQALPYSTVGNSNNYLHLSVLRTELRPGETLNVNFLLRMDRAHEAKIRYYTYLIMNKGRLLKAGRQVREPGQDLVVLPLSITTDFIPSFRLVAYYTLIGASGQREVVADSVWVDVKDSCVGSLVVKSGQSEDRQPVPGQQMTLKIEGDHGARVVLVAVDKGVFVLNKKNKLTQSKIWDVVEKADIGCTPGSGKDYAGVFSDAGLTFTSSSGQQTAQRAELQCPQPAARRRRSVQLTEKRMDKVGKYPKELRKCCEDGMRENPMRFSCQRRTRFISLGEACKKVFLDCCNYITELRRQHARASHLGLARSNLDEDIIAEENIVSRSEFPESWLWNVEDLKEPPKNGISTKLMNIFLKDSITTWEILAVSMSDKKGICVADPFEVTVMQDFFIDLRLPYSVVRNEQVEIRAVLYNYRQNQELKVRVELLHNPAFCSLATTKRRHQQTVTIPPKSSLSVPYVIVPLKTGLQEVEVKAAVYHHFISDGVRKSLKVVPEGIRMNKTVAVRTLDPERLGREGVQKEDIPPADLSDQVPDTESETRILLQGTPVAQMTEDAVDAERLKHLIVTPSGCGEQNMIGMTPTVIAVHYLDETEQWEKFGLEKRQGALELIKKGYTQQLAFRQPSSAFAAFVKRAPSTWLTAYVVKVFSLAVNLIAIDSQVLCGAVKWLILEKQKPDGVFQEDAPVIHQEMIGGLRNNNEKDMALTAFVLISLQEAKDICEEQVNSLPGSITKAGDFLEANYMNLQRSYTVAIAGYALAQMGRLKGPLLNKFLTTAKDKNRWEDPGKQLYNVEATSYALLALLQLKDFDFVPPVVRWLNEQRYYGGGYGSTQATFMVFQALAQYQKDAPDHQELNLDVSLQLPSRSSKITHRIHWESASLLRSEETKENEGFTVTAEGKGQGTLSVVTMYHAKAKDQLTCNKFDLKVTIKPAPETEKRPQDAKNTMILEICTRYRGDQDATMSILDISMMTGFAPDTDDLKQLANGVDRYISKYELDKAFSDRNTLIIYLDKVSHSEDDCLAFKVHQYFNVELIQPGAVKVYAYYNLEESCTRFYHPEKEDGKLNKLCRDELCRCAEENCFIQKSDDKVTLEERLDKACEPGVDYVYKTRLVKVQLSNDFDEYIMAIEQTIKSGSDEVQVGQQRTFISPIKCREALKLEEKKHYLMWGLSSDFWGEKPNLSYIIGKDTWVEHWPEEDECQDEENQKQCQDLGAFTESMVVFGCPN
UniProt P01031: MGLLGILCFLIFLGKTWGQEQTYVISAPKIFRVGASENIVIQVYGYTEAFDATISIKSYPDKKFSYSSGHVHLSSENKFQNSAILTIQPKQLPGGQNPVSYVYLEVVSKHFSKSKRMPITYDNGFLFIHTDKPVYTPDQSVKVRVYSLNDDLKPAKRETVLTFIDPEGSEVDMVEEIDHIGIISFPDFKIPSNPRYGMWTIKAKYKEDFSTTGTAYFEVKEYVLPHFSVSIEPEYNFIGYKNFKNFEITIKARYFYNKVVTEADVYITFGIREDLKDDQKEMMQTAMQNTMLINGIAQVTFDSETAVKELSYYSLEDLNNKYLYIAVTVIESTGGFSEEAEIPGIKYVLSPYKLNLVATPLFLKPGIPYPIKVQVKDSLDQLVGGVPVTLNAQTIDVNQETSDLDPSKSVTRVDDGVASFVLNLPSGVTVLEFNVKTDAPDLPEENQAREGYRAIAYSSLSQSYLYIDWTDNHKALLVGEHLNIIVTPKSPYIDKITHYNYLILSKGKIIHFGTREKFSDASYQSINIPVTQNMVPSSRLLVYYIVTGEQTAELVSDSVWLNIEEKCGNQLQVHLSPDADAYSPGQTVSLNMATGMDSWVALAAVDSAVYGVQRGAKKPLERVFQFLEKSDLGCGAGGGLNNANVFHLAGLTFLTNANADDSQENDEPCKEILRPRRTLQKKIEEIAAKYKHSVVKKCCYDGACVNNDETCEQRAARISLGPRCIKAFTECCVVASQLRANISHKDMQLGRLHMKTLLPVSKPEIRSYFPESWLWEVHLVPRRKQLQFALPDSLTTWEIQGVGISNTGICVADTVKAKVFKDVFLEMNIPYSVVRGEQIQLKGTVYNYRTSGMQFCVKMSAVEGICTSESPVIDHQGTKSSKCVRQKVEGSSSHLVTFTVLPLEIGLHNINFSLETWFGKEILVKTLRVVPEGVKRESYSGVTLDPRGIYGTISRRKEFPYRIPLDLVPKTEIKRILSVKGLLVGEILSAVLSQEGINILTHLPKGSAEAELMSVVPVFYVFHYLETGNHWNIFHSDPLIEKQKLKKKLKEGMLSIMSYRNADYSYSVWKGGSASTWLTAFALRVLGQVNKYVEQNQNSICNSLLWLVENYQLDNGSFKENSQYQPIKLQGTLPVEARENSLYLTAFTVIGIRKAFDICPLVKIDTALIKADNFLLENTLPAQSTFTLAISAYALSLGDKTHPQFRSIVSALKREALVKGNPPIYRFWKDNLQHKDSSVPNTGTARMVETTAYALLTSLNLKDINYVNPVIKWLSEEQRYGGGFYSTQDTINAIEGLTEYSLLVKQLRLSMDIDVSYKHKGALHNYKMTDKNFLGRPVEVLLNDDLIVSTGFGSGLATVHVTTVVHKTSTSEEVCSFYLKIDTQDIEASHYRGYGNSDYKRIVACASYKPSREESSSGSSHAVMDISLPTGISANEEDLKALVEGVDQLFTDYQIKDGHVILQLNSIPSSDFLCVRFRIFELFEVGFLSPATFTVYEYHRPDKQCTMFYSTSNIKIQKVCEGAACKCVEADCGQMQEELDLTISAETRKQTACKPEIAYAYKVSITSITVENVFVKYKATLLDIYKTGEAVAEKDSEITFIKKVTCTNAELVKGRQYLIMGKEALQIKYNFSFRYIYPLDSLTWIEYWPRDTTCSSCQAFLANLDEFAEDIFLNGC
UniProt P07357: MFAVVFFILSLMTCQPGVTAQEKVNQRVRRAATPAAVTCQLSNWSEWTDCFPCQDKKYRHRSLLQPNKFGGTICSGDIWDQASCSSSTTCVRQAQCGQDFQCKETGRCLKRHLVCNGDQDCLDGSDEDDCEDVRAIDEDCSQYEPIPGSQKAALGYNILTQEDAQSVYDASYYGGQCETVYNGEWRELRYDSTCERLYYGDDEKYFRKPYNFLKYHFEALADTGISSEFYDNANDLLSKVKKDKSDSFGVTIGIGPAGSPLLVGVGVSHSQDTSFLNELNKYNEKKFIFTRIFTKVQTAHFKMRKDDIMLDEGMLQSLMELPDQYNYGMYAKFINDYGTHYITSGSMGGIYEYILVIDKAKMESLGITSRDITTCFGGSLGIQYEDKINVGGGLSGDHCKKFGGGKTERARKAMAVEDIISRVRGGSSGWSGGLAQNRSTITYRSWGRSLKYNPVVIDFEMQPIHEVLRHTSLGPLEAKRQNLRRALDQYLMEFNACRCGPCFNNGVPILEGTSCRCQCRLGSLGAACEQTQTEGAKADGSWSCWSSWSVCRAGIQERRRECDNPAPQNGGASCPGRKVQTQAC
UniProt P08603, residues 19-1231: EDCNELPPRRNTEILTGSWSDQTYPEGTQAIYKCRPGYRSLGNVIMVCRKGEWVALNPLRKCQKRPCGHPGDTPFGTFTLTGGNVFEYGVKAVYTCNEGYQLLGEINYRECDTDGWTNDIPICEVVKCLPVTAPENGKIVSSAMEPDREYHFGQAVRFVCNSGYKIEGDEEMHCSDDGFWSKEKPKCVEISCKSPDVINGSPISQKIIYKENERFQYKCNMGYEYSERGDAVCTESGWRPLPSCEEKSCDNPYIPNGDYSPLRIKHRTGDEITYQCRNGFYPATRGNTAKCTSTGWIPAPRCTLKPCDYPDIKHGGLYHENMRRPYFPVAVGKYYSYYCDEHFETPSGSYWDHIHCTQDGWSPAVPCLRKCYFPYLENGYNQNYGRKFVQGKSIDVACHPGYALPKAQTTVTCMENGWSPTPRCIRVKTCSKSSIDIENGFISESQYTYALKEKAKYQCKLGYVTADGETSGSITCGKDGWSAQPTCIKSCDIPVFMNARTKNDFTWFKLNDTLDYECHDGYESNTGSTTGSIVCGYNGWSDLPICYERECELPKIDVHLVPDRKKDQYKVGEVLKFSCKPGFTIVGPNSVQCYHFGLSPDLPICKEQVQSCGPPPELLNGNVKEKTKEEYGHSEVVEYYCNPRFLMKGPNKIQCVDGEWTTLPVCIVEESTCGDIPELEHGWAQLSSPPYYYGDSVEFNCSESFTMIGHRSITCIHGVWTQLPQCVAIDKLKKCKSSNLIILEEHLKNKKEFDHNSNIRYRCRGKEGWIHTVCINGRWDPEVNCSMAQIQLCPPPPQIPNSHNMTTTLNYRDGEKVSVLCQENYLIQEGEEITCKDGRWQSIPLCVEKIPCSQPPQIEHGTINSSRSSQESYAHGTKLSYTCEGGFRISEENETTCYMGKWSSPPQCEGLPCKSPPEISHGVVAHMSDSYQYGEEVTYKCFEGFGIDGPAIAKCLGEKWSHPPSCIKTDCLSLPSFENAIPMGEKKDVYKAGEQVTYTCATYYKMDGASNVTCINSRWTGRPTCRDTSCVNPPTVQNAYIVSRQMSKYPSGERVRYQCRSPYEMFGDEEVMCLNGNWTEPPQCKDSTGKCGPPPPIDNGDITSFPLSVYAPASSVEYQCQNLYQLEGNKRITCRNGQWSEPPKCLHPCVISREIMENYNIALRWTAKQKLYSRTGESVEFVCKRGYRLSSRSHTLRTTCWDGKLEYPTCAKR

How the values were obtained:
[1] = molecular target: recombinant full-length thrombospondin-1 (TSP-1) (human) (UniProt P07996); assay: SPR; BIAcore 3000; TSP-1 bound covalently to CM5 chips at 0.1 μM; complement proteins flowed at 12.3, 37.03, 111.1, 333.3, 1,000 nM in PBS plus 0.05% Tween 20; 1:1 Langmuir binding model; average of 3 measurements; both purified
complement C3 = complement C3 (UniProt P01024); assay: ELISA; binding ELISA with platelet-isolated (untagged) TSP-1; Supplemental Figure 1; details not shown; both purified
complement C5 = complement C5 (UniProt P01031); assay: as above
complement C8 = complement C8 (UniProt P07357); assay: as above
complement factor H (FH) = complement factor H (FH) (UniProt P08603); assay: as above

Substance | binding [1] | binding (complement C3) | binding (complement C5) | binding (complement C8) | binding (complement factor H (FH))
complement C3b (from UniProt P01024 23-667; P01024 749-1663) | binds weakly | – | – | – | –
platelet-isolated TSP-1 (p-TSP-1) (from UniProt P07996 19-1170) | – | binds | binds | binds | binds
